Reference: patent US20060269557A1 (CITY OF HOPE, published 2006)
Changes are numbered by the printed parent chain. Names may count otherwise. No constants are given. Whether binding was seen depends on the method and setting. Some entries that bind do so weakly or less than the wild type. Sequences can lack the tags named with a protein. Values belong to the binder of their own block, whether it stands above or below them.

Columns and labels:
[1] = biological target: T1, bacterial expressed GST-PSCA (UniProt O43653); experiment: Western blot
T1 sequence (looked up): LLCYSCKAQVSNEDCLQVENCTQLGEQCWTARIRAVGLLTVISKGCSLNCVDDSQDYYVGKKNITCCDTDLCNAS

[2] = biological target: T2, soluble PSCA fused human IgG1 or mouse IgG2a Fc (UniProt O43653); experiment: antigen binding activity, comparison of the two humanized antibodies
T2 sequence (looked up): T1 sequence (looked up)

binding [1]: binds
B1: murine monoclonal antibody 1G8 (antibody, V domains shown)
VH: EVQLQQSGAELVRSGASVKLSCTASGFNIKDYYIHWVNQRPDQGLEWIGWIDPENGDTEFVPKFQGKATMTADIFSNTAYLHLSSLTSEDTAVYYCKTGGFWGQGTLVTVSA
VL: QVVLTQSPAIMSASPGEKVTMACSASSSVRFIHWYQQKSGTSPKRWIYDTSKLASGVPTRFSGSGSGTSYSLTISTMEAEDAATYYCQQWSSSPFTFGSGTKLIIK
notes: Intact murine antibody from hybridoma; also called mu1G8; parental mu1G8

binding [2]: binds
B2: humanized 1G8 antibody hu1G8-B (antibody, V domains shown)
VH: EVQLVESGGGLVQPGGSLRLSCAASGFNIKDYYIHWVRQAPGKGLEWVAWIDPENGDTEFVPKFQGRATISADTSKNTAYLQMNSLRAEDTAVYYCKTGGFWGQGTLVTVSS
VL: DIQLTQSPSSLSASVGDRVTITCSASSSVRFIHWYQQKPGKAPKRLIYDTSKLASGVPSRFSGSGSGTDFTLTISSLQPEDFATYYCQQWSSSPFTFGQGTKVEIK
notes: Labelled with 124I in the immunoreactivity assays; also called M6B; clone 2B3

binding [2]: binds
B3: humanized 1G8 antibody hu1G8-A (antibody, V domains shown)
VH: B2 VH with V61A, P62D, K63S, F64V, Q65K, A68F
VL: B2 VL
notes: also called M6A
